Measured data: PubChem BioAssay AID1259254 (NCATS, 2017)
The whole screen tested about 59,000 reagents; below is a part drawn at random. About 1,550 of all reagents (2.6%) were called active. 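G2 share is only a proxy for re-replication; each gene was hit by three separate siRNAs, and active genes were retested.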 Raw values are not corrected between plates. A number with no mark means an inactive call. The numbers tell different reagents against one gene apart. Reagent sequences are not shown. The record does not give: the amount of reagent.

- Aim: 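Genome-wide screen for genes that prevent DNA re-replication in cancer cells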 (primary screen)
- System: human HCT116 colorectal cancer cells
- Knock-down reagent: single siRNA against human genes
- Time to read-out: 3 days
- Detection: 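Imaged Hoechst DNA stain sorts each cell into a cycle phase by DNA amount; per plate, G2 fraction set to 0% for non-targeting and 100% for GMNN siRNA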
- Reading the numbers: G2 robust z-score and G2 cells, % of GMNN control: higher = more G2 cells, more excess DNA replication; raw share of cells in G2: higher = larger share of cells with G2 DNA content
- Hit rule: 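Active siRNAs have a G2 robust z of 5 or more median absolute deviations over the median, which in these data means about 38% or higher of GMNN control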

| gene | reagent no. | G2 robust z-score | G2 cells, % of GMNN control | raw share of cells in G2 (%) |
| --- | --- | --- | --- | --- |
| PALLD (palladin, cytoskeletal associated protein) | 1 | -0.493 | -0.499 | 3.69 |
| PALLD (palladin, cytoskeletal associated protein) | 2 | -1.29 | -6.08 | 2.12 |
| PALLD (palladin, cytoskeletal associated protein) | 3 | -1.09 | -4.7 | 4.48 |
| RPSAP19 (ribosomal protein SA pseudogene 19) | 1 | 0.523 | 6.65 | 6.71 |
| RPSAP19 (ribosomal protein SA pseudogene 19) | 2 | 4.54 | 34.9 | 15 |
| RPSAP19 (ribosomal protein SA pseudogene 19) | 3 | 3.09 | 24.7 | 12.2 |
| ABHD12 (abhydrolase domain containing 12, lysophospholipase) | 1 | 0.459 | 6.2 | 6.74 |
| ABHD12 (abhydrolase domain containing 12, lysophospholipase) | 2 | 0.449 | 6.13 | 6.59 |
| ABHD12 (abhydrolase domain containing 12, lysophospholipase) | 3 | 0.248 | 4.71 | 4.95 |
| BNC1 (basonuclin zinc finger protein 1) | 1 | 2.36 | 19.6 | 11.4 |
| BNC1 (basonuclin zinc finger protein 1) | 2 | 2.3 | 19.2 | 11.9 |
| BNC1 (basonuclin zinc finger protein 1) | 3 | 1.79 | 15.5 | 9.78 |
| MAP1LC3C (microtubule associated protein 1 light chain 3 gamma) | 1 | 1.06 | 10.4 | 7.66 |
| MAP1LC3C (microtubule associated protein 1 light chain 3 gamma) | 2 | 1.46 | 13.2 | 8.44 |
| MAP1LC3C (microtubule associated protein 1 light chain 3 gamma) | 3 | -0.201 | 1.56 | 3.65 |
| MRFAP1L1 (Morf4 family associated protein 1 like 1) | 1 | -0.331 | 0.636 | 4.35 |
| MRFAP1L1 (Morf4 family associated protein 1 like 1) | 2 | -0.000354 | 2.96 | 4.21 |
| MRFAP1L1 (Morf4 family associated protein 1 like 1) | 3 | -0.811 | -2.74 | 1.02 |
| ADORA1 (adenosine A1 receptor) | 1 | 2.63 | 21.5 | 13.5 |
| ADORA1 (adenosine A1 receptor) | 2 | -1.06 | -4.47 | 2.96 |
| ADORA1 (adenosine A1 receptor) | 3 | 0.331 | 5.29 | 4.89 |
| FAM111B (FAM111 trypsin like peptidase B) | 1 | 4 | 31.1 | 14.7 |
| FAM111B (FAM111 trypsin like peptidase B) | 2 | 0.617 | 7.31 | 6.46 |
| FAM111B (FAM111 trypsin like peptidase B) | 3 | 0.61 | 7.26 | 7.11 |
| JCHAIN (joining chain of multimeric IgA and IgM) | 1 | 1.27 | 11.9 | 10 |
| JCHAIN (joining chain of multimeric IgA and IgM) | 2 | -1.13 | -4.97 | 2.26 |
| JCHAIN (joining chain of multimeric IgA and IgM) | 3 | -0.389 | 0.232 | 3.44 |
| GFAP (glial fibrillary acidic protein) | 1 | 0.578 | 7.03 | 7.94 |
| GFAP (glial fibrillary acidic protein) | 2 | 0.0606 | 3.39 | 4.87 |
| GFAP (glial fibrillary acidic protein) | 3 | 3.15 | 25.1 | 14.4 |
| MED26 (mediator complex subunit 26) | 1 | -0.524 | -0.72 | 3.29 |
| MED26 (mediator complex subunit 26) | 2 | 1.28 | 12 | 11.3 |
| MED26 (mediator complex subunit 26) | 3 | 0.453 | 6.16 | 5.92 |
| PRND (prion like protein doppel) | 1 | -0.585 | -1.15 | 3.98 |
| PRND (prion like protein doppel) | 2 | 1.43 | 13 | 9.57 |
| PRND (prion like protein doppel) | 3 | 1.38 | 12.7 | 7.72 |
| ISOC1 (isochorismatase domain containing 1) | 1 | -0.398 | 0.165 | 6.03 |
| ISOC1 (isochorismatase domain containing 1) | 2 | 7.96 (active) | 59 | 26 |
| ISOC1 (isochorismatase domain containing 1) | 3 | -0.633 | -1.49 | 3.23 |
| ILF3 (interleukin enhancer binding factor 3) | 1 | 0.45 | 6.14 | 7.58 |
| ILF3 (interleukin enhancer binding factor 3) | 2 | 2.11 | 17.8 | 11.3 |
| ILF3 (interleukin enhancer binding factor 3) | 3 | -0.133 | 2.03 | 4.09 |
| SELENOH (selenoprotein H) | 1 | 2.3 | 19.2 | 10.6 |
| SELENOH (selenoprotein H) | 2 | 0.266 | 4.84 | 4.92 |
| SELENOH (selenoprotein H) | 3 | -0.236 | 1.3 | 3.66 |
| ZNRF4 (zinc and ring finger 4) | 1 | 2.42 | 20 | 9.09 |
| ZNRF4 (zinc and ring finger 4) | 2 | 0.558 | 6.89 | 5.47 |
| ZNRF4 (zinc and ring finger 4) | 3 | 0.554 | 6.87 | 6.13 |
| SYNM (synemin) | 1 | -0.484 | -0.44 | 6.19 |
| SYNM (synemin) | 2 | -0.833 | -2.89 | 3.19 |
| SYNM (synemin) | 3 | -0.698 | -1.95 | 3.2 |
| MCUR1 (mitochondrial calcium uniporter regulator 1) | 1 | -0.759 | -2.37 | 3.55 |
| MCUR1 (mitochondrial calcium uniporter regulator 1) | 2 | 0.326 | 5.26 | 6.97 |
| MCUR1 (mitochondrial calcium uniporter regulator 1) | 3 | 0.361 | 5.51 | 4.15 |
| FAM219B (family with sequence similarity 219 member B) | 1 | -0.269 | 1.08 | 4.77 |
| FAM219B (family with sequence similarity 219 member B) | 2 | -0.558 | -0.957 | 4 |
| FAM219B (family with sequence similarity 219 member B) | 3 | -0.15 | 1.91 | 3.64 |
| SCFD2 (sec1 family domain containing 2) | 1 | 2.34 | 19.4 | 10.3 |
| SCFD2 (sec1 family domain containing 2) | 2 | -1.05 | -4.39 | 1.56 |
| SCFD2 (sec1 family domain containing 2) | 3 | -0.801 | -2.67 | 2.14 |
| IKZF2 (IKAROS family zinc finger 2) | 1 | -0.322 | 0.699 | 3.76 |
| IKZF2 (IKAROS family zinc finger 2) | 2 | -0.533 | -0.781 | 5.64 |
| IKZF2 (IKAROS family zinc finger 2) | 3 | -0.804 | -2.69 | 2.21 |
| MEX3B (mex-3 RNA binding family member B) | 1 | -0.00739 | 2.92 | 6.64 |
| MEX3B (mex-3 RNA binding family member B) | 2 | 3.35 | 26.5 | 13.8 |
| MEX3B (mex-3 RNA binding family member B) | 3 | 2.15 | 18.1 | 11.5 |
| SERPINB7 (serpin family B member 7) | 1 | 0.946 | 9.62 | 8.15 |
| SERPINB7 (serpin family B member 7) | 2 | -0.411 | 0.0774 | 4.57 |
| SERPINB7 (serpin family B member 7) | 3 | 2.99 | 24 | 13.7 |

As entered above:
For “raw share of cells in G2 (%)”, SYNM (synemin) #1 reads 6.19
MED26 (mediator complex subunit 26) #3, G2 robust z-score → 0.453
RPSAP19 (ribosomal protein SA pseudogene 19) #3, G2 cells, % of GMNN control = 24.7
Result of MCUR1 (mitochondrial calcium uniporter regulator 1) #2 under “G2 cells, % of GMNN control”: 5.26
Under “raw share of cells in G2 (%)”, FAM111B (FAM111 trypsin like peptidase B) #1 is entered as 14.7
Result of SELENOH (selenoprotein H) #2 in “G2 cells, % of GMNN control”: 4.84
